# In the supplement of paper PMC12067093, “Discovery and optimisation of a covalent ligand for TRIM25 and its application to targeted protein ubiquitination” (Chemical Science, 2025):
# This is one part of the list.
# Target: T1, PPIL2_Q13356_103_YHCPVLFTVFTNNTHIVAVR (UniProt Q13356)
# T1 sequence (whole entry): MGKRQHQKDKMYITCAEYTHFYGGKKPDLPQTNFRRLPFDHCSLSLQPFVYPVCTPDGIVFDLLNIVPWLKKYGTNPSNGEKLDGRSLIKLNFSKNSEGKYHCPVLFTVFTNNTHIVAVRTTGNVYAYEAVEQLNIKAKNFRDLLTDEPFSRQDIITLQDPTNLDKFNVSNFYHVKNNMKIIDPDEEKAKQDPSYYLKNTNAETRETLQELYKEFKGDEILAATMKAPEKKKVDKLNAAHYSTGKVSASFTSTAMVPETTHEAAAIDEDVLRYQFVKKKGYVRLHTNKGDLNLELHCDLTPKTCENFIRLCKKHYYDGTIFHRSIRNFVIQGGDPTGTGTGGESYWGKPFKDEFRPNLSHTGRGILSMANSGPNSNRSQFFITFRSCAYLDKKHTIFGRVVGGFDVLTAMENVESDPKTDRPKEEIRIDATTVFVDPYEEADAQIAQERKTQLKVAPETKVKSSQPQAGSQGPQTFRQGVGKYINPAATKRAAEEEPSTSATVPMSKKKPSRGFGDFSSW
# Assay: probe-labelled cysteine peptide fold change vs DMSO (competition) (log2 fold change); higher = less target engagement (more negative = stronger competition)
# Conditions: THP-1, incubation time: 4 h
# 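Also: competitive chemoproteomic profiling in live THP-1 cells with an iodoacetamide desthiobiotin (IA-DTB) probe, comparing probe-labelled peptide intensities in compound-treated cells against DMSO-treated controls.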
smiles,measurement,setting,value
CC1Cc2ccccc2N1C(=O)C1CCCN(C(=O)CCl)C1 (mixture of isomers) [TRIM25 ligand 11 (diastereomer mixture)],probe-labelled cysteine peptide fold change,10 µM,-0.115
same,probe-labelled cysteine peptide fold change,50 µM,-0.134
